According to patent publication EP0357637B1, “GENERAL CANCER-ASSOCIATED SCM-RECOGNITION FACTOR, PREPARATION AND METHOD OF USE” (CERCEK, Boris, priority 1987, dated 1988):
At least one peptide structure holds a part that was inferred or is arguable (an end, a ring closure or a residue). Where no end group is shown, it is not given here.

Key:
[1] = system: SCM-responding lymphocytes isolated from cancer patients; assay: SCM test (change in intracellular fluorescein fluorescence polarization), lymphocytes from cancer donors; format: cell-based, human; conditions: for cross-reactivity in the SCM test with lymphocytes from a donor with another cancer type: fragment from plasma of lung cancer patients, lymphocytes from donors with breast cancer; for activity in the SCM test (in words): lymphocytes from donors with cancer
[2] = system: SCM-responding lymphocytes isolated from healthy donors; assay: SCM test (change in intracellular fluorescein fluorescence polarization), lymphocytes from healthy donors; format: cell-based, human; conditions: lymphocytes from healthy (normal) donors

Sequence	cross-reactivity in the SCM test with lymphocytes from a donor with another cancer type [1]	cross-reactivity in the SCM test with lymphocytes from a donor with another cancer type ([1]; listed as tryptic peptide)	activity in the SCM test (in words) [1]	decrease in polarization value / response in the SCM test [2]
FNKPFVFLMIDQNFSK [lung fragment, Phe-Asn-Lys-Pro-Phe-Val-Phe-Leu-Met-Ile-Asp-Gln-Asn-Phe-Ser-Lys]	reacted equally well	crossreacted fully	fully active	no response
FNKPFVFLMIDQNTK [breast fragment, Phe-Asn-Lys-Pro-Phe-Val-Phe-Leu-Met-Ile-Asp-Gln-Asn-Thr-Lys]	–	–	fully active	–
